Test system: BAF complex subunits and histone proteins
Experiment: Mass spectrometry proteomics of purified HA-SS18 WT and HA-SS18-SSX1 complexes (Tables 5A-5E)
Design: species or system human
Details: for Total / Unique: HA-SS18SSX1_CHR_peptides; for Total: total peptides of the identified protein; for Unique: unique peptides of the identified protein
[1] = HA-SS18SSX1 purification, NE (soluble nuclear extract) fraction, HEK-293T, peptides per identified protein
[2] = HA-SS18WT_CHR_peptides: HA-SS18 WT purification from nuclease-treated solubilized chromatin (CHR), HEK-293T, label = protein identified
[3] = HA-SS18WT_NE_peptides: HA-SS18 WT complexes purified from nuclear extract (NE), HEK-293T, label = protein identified (Gene Symbol)
[4] = HA-SS18SSX1_NE_peptides: protein co-purified with HA-SS18-SSX1 BAF complexes from soluble nuclear extract (NE), HEK-293T cells
[5] = HA-SS18WT_CHR_peptides: protein identified in HA-SS18 WT BAF complex purification from nuclease-treated solubilized chromatin (CHR), HEK-293T

| Molecule | Total | Unique | Total (total peptides) [1] | Unique (unique peptides) [1] | Total (peptides) [2] | Unique (peptides) [2] | Total (peptides) [3] | Unique (peptides) [3] | Total (peptides) [4] | Unique (peptides) [4] | Total (total peptides) [5] | Unique (unique peptides) [5] |
| --- | --- | --- | --- | --- | --- | --- | --- | --- | --- | --- | --- | --- |
| DDX51 (protein, UniProt Q8N8A6 2-666, looked up) ATP-dependent RNA helicase …: ALFYVARYPGPDAAAAAGPEGAEAGAHGRARALLERLQSRARERQQQREPAQTEAAASTEPATRRRRRPRRRRRVNDAEPGSPEAPQGKRRKADGEDAGAESNEEAPGEPSAGSSEEAPGEPSAGSSEEAPGERSTSASAEAAPDGPALEEAAGPLVPGLVLGGFGKRKAPKVQPFLPRWLAEPNCVRRNVTEDLVPIEDIPDVHPDLQKQLRAHGISSYFPVQAAVIPALLESAACGFLVGRGGYRPSDLCVSAPTGSGKTLAFVIPVVQALLSRVVCHIRALVVLPTKELAQQVSKVFNIYTDATPLRVSLVTGQKSLAKEQESLVQKTADGYRCLADIVVATPGRLVDHIDQTPGFSLQQLRFLIIDEADRMIDSMHQSWLPRVVAAAFQSEDPADPCALLQRRQAQAVTAASTCCPQMPLQKLLFSATLTQNPEKLQQLGLHQPRLFSTGLAHRGLEDTDGDGDSGKYAFPVGLTHHYVPCSLSSKPLVVLHLVLEMGFSRVLCFTNSRENSHRLFLLVQAFGGVDVAEFSSRYGPGQRRMILKQFEQGKIQLLISTDATARGIDVQGVELVVNYDAPQYLRTYVHRVGRTARAGKTGQAFTLLLKVQERRFLRMLTEAGAPELQRHELSSKLLQPLVPRYEEALSQLEESVKEERKQRAA | 4 | 4 | 8 | 7 | 7 | 6 | 8 | 7 |  |  |  |  |
| ZRANB2 (protein, UniProt O95218 1-330, looked up) Zinc finger Ran-binding …: MSTKNFRVSDGDWICPDKKCGNVNFARRTSCNRCGREKTTEAKMMKAGGTEIGKTLAEKSRGLFSANDWQCKTCSNVNWARRSECNMCNTPKYAKLEERTGYGGGFNERENVEYIEREESDGEYDEFGRKKKKYRGKAVGPASILKEVEDKESEGEEEDEDEDLSKYKLDEDEDEDDADLSKYNLDASEEEDSNKKKSNRRSRSKSRSSHSRSSSRSSSPSSSRSRSRSRSRSSSSSQSRSRSSSRERSRSRGSKSRSSSRSHRGSSSPRKRSYSSSSSSPERNRKRSRSRSSSSGDRKKRRTRSRSPERRHRSSSGSSHSGSRSSSKKK | 4 | 3 |  |  |  |  |  |  |  |  |  |  |
| TOMM22 (protein, UniProt Q9NS69 2-142, looked up) Mitochondrial import receptor …: AAAVAAAGAGEPQSPDELLPKGDAEKPEEELEEDDDEELDETLSERLWGLTEMFPERVRSAAGATFDLSLFVAQKMYRFSRAALWIGTTSFMILVLPVVFETEKLQMEQQQQLQQRQILLGPNTGLSGGMPGALPSLPGKI | 4 | 3 |  |  |  |  | 2 | 2 | 2 | 2 | 2 | 2 |
| CFAP20 (protein, UniProt Q9Y6A4 1-193, looked up) Cilia- and …: MFKNTFQSGFLSILYSIGSKPLQIWDKKVRNGHIKRITDNDIQSLVLEIEGTNVSTTYITCPADPKKTLGIKLPFLVMIIKNLKKYFTFEVQVLDDKNVRRRFRASNYQSTTRVKPFICTMPMRLDDGWNQIQFNLLDFTRRAYGTNYIETLRVQIHANCRIRRVYFSDRLYSEDELPAEFKLYLPVQNKAKQ | 4 | 3 |  |  |  |  |  |  |  |  | 1 | 1 |
| PHC1 (protein, UniProt P78364 1-1004, looked up) Polyhomeotic-like protein 1: METESEQNSNSTNGSSSSGGSSRPQIAQMSLYERQAVQALQALQRQPNAAQYFHQFMLQQQLSNAQLHSLAAVQQATIAASRQASSPNTSTTQQQTTTTQASINLATTSAAQLISRSQSVSSPSATTLTQSVLLGNTTSPPLNQSQAQMYLRPQLGNLLQVNRTLGRNVPLASQLILMPNGAVAAVQQEVPSAQSPGVHADADQVQNLAVRNQQASAQGPQMQGSTQKAIPPGASPVSSLSQASSQALAVAQASSGATNQSLNLSQAGGGSGNSIPGSMGPGGGGQAHGGLGQLPSSGMGGGSCPRKGTGVVQPLPAAQTVTVSQGSQTEAESAAAKKAEADGSGQQNVGMNLTRTATPAPSQTLISSATYTQIQPHSLIQQQQQIHLQQKQVVIQQQIAIHHQQQFQHRQSQLLHTATHLQLAQQQQQQQQQQQQQQQPQATTLTAPQPPQVPPTQQVPPSQSQQQAQTLVVQPMLQSSPLSLPPDAAPKPPIPIQSKPPVAPIKPPQLGAAKMSAAQQPPPHIPVQVVGTRQPGTAQAQALGLAQLAAAVPTSRGMPGTVQSGQAHLASSPPSSQAPGALQECPPTLAPGMTLAPVQGTAHVVKGGATTSSPVVAQVPAAFYMQSVHLPGKPQTLAVKRKADSEEERDDVSTLGSMLPAKASPVAESPKVMDEKSSLGEKAESVANVNANTPSSELVALTPAPSVPPPTLAMVSRQMGDSKPPQAIVKPQILTHIIEGFVIQEGAEPFPVGCSQLLKESEKPLQTGLPTGLTENQSGGPLGVDSPSAELDKKANLLKCEYCGKYAPAEQFRGSKRFCSMTCAKRYNVSCSHQFRLKRKKMKEFQEANYARVRRRGPRRSSSDIARAKIQGKCHRGQEDSSRGSDNSSYDEALSPTSPGPLSVRAGHGERDLGNPNTAPPTPELHGINPVFLSSNPSRWSVEEVYEFIASLQGCQEIAEEFRSQEIDGQALLLLKEEHLMSAMNIKLGPALKICAKINVLKET | 4 | 3 |  |  |  |  |  |  |  |  | 2 | 2 |
| SNRNP40 (protein) MIEQQKRKGPELPLVPVKRQRHELLLGAGSGPGAGQQQATPGALLQAGPPRCSSLQAPIMLLSGHEGEVYCCKFHPNGSTLASAGFDRLILLWNVYGDCDNYATLKGHSGAVMELHYNTDGSMLFSASTDKTVAVWDSETGERVKRLKGHTSFVNSCYPARRGPQLVCTGSDDGTVKLWDIRKKAAIQTFQNTYQVLAVTFNDTSDQIISGGIDNDIKVWDLRQNKLTYTMRGHADSVTGLSLSSEGSYLLSNAMDNTVRVWDVRPFAPKERCVKIFQGNVHNFEKNLLRCSWSPDGSKIAAGSADRFVYVWDTTSRRILYKLPGHAGSINEVAFHPDEPIIISASSDKRLYMGEIQ | 4 | 3 |  |  |  |  |  |  |  |  |  |  |
| VDAC3 (protein, UniProt Q9Y277 2-283, looked up) Non-selective voltage-gated …: CNTPTYCDLGKAAKDVFNKGYGFGMVKIDLKTKSCSGVEFSTSGHAYTDTGKASGNLETKYKVCNYGLTFTQKWNTDNTLGTEISWENKLAEGLKLTLDTIFVPNTGKKSGKLKASYKRDCFSVGSNVDIDFSGPTIYGWAVLAFEGWLAGYQMSFDTAKSKLSQNNFALGYKAADFQLHTHVNDGTEFGGSIYQKVNEKIETSINLAWTAGSNNTRFGIAAKYMLDCRTSLSAKVNNASLIGLGYTQTLRPGVKLTLSALIDGKNFSAGGHKVGLGFELEA | 4 | 3 |  |  | 4 | 3 |  |  | 3 | 2 |  |  |
| SF3A1 (protein, UniProt Q15459 2-793, looked up) Splicing factor 3A subunit 1: PAGPVQAVPPPPPVPTEPKQPTEEEASSKEDSAPSKPVVGIIYPPPEVRNIVDKTASFVARNGPEFEARIRQNEINNPKFNFLNPNDPYHAYYRHKVSEFKEGKAQEPSAAIPKVMQQQQQTTQQQLPQKVQAQVIQETIVPKEPPPEFEFIADPPSISAFDLDVVKLTAQFVARNGRQFLTQLMQKEQRNYQFDFLRPQHSLFNYFTKLVEQYTKILIPPKGLFSKLKKEAENPREVLDQVCYRVEWAKFQERERKKEEEEKEKERVAYAQIDWHDFVVVETVDFQPNEQGNFPPPTTPEELGARILIQERYEKFGESEEVEMEVESDEEDDKQEKAEEPPSQLDQDTQVQDMDEGSDDEEEGQKVPPPPETPMPPPLPPTPDQVIVRKDYDPKASKPLPPAPAPDEYLVSPITGEKIPASKMQEHMRIGLLDPRWLEQRDRSIREKQSDDEVYAPGLDIESSLKQLAERRTDIFGVEETAIGKKIGEEEIQKPEEKVTWDGHSGSMARTQQAAQANITLQEQIEAIHKAKGLVPEDDTKEKIGPSKPNEIPQQPPPPSSATNIPSSAPPITSVPRPPTMPPPVRTTVVSAVPVMPRPPMASVVRLPPGSVIAPMPPIIHAPRINVVPMPPSAPPIMAPRPPPMIVPTAFVPAPPVAPVPAPAPMPPVHPPPPMEDEPTSKKLKTEDSLMPEEEFLRRNKGPVSIKVQVPNMQDKTEWKLNGQVLVFTLPLTDQVSVIKVKIHEATGMPAGKQKLQYEGIFIKDSNSLAYYNMANGAVIHLALKERGGRKK | 3 | 3 |  |  | 5 | 5 |  |  | 1 | 1 |  |  |
| RRP1 (protein, UniProt P56182 1-461, looked up) Ribosomal RNA processing …: MVSRVQLPPEIQLAQRLAGNEQVTRDRAVRKLRKYIVARTQRAAGGFTHDELLKVWKGLFYCMWMQDKPLLQEELGRTISQLVHAFQTTEAQHLFLQAFWQTMNREWTGIDRLRLDKFYMLMRMVLNESLKVLKMQGWEERQIEELLELLMTEILHPSSQAPNGVKSHFIEIFLEELTKVGAEELTADQNLKFIDPFCRIAARTKDSLVLNNITRGIFETIVEQAPLAIEDLLNELDTQDEEVASDSDESSEGGERGDALSQKRSEKPPAGSICRAEPEAGEEQAGDDRDSGGPVLQFDYEAVANRLFEMASRQSTPSQNRKRLYKVIRKLQDLAGGIFPEDEIPEKACRRLLEGRRQKKTKKQKRLLRLQQERGKGEKEPPSPGMERKRSRRRGVGADPEARAEAGEQPGTAERALLRDQPRGRGQRGARQRRRTPRPLTSARAKAANVQEPEKKKKRRE | 3 | 3 |  |  | 3 | 3 |  |  |  |  |  |  |
| ATP5A1 (protein, UniProt P25705 44-553, looked up) ATP synthase F(1) complex …: QKTGTAEMSSILEERILGADTSVDLEETGRVLSIGDGIARVHGLRNVQAEEMVEFSSGLKGMSLNLEPDNVGVVVFGNDKLIKEGDIVKRTGAIVDVPVGEELLGRVVDALGNAIDGKGPIGSKTRRRVGLKAPGIIPRISVREPMQTGIKAVDSLVPIGRGQRELIIGDRQTGKTSIAIDTIINQKRFNDGSDEKKKLYCIYVAIGQKRSTVAQLVKRLTDADAMKYTIVVSATASDAAPLQYLAPYSGCSMGEYFRDNGKHALIIYDDLSKQAVAYRQMSLLLRRPPGREAYPGDVFYLHSRLLERAAKMNDAFGGGSLTALPVIETQAGDVSAYIPTNVISITDGQIFLETELFYKGIRPAINVGLSVSRVGSAAQTRAMKQVAGTMKLELAQYREVAAFAQFGSDLDAATQQLLSRGVRLTELLKQGQYSPMAIEEQVAVIYAGVRGYLDKLEPSKITKFENAFLSHVVSQHQALLGTIRADGKISEQSDAKLKEIVTNFLAGFEA | 3 | 3 | 39 | 24 | 3 | 3 | 42 | 26 |  |  |  |  |
